Experimental data: the supplement of paper PMC8728848
The list shows a part of the results.

How the values were obtained:
Assay in all cases: glycan array binding signal (z-score within array); higher = stronger binding
Conditions in all cases: glycan notation: IUPAC condensed, linker removed
[1] = target: Gal(b1-4)GlcNAc(b1-2)[Gal(b1-4)GlcNAc(b1-6)]Man(a1-6)[Gal(b1-4)GlcNAc(b1-2)Man(a1-3)]Man(b1-4)GlcNAc(b1-4)[Fuc(a1-6)]GlcNAc
Summary of the method: (§1)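 The binding signal is a Z-score computed within each array. Data were drawn from 3228 arrays in the Consortium for Functional Glycomics database, restricted to those with a known protein sequence. Scores were averaged over arrays of the same protein sequence at different concentrations or buffers, and over linkers, and negative values can be taken as non-binding.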

[2] = target: Gal(b1-4)GlcNAc(b1-2)[Gal(b1-4)GlcNAc(b1-6)]Man(a1-6)[GlcNAc(b1-4)][Gal(b1-4)GlcNAc(b1-2)Man(a1-3)]Man(b1-4)GlcNAc(b1-4)GlcNAc
Summary of the method: as §1

[3] = target: Gal(b1-4)GlcNAc(b1-2)[Gal(b1-4)GlcNAc(b1-6)]Man(a1-6)[GlcNAc(b1-4)][Gal(b1-4)GlcNAc(b1-2)[Gal(b1-4)GlcNAc(b1-4)]Man(a1-3)]Man(b1-4)GlcNAc(b1-4)[Fuc(a1-6)]GlcNAc
Summary of the method: as §1

[4] = target: Gal(b1-4)GlcNAc(b1-3)Gal(b1-3)GalNAc
Summary of the method: as §1

[5] = target: Gal(b1-4)GlcNAc(b1-3)Gal(b1-3)GlcNAc
Summary of the method: as §1

[6] = target: Gal(b1-4)GlcNAc(b1-3)Gal(b1-4)Glc
Summary of the method: as §1

[7] = target: Gal(b1-4)GlcNAc(b1-3)Gal(b1-4)GlcNAc
Summary of the method: as §1

[8] = target: Gal(b1-4)GlcNAc(b1-3)Gal(b1-4)GlcNAc(b1-2)Man(a1-3)[Gal(b1-4)GlcNAc(b1-3)Gal(b1-4)GlcNAc(b1-2)Man(a1-6)]Man(b1-4)GlcNAc(b1-4)GlcNAc
Summary of the method: as §1

[9] = target: Gal(b1-4)GlcNAc(b1-3)Gal(b1-4)GlcNAc(b1-2)Man(a1-3)[Gal(b1-4)GlcNAc(b1-3)Gal(b1-4)GlcNAc(b1-2)Man(a1-6)]Man(b1-4)GlcNAc(b1-4)[Fuc(a1-6)]GlcNAc
Summary of the method: as §1

[10] = target: Gal(b1-4)GlcNAc(b1-3)Gal(b1-4)GlcNAc(b1-2)[Gal(b1-4)GlcNAc(b1-3)Gal(b1-4)GlcNAc(b1-6)]Man(a1-6)[Gal(b1-4)GlcNAc(b1-3)Gal(b1-4)GlcNAc(b1-2)Man(a1-3)]Man(b1-4)GlcNAc(b1-4)GlcNAc
Summary of the method: as §1

[11] = target: Gal(b1-4)GlcNAc(b1-3)Gal(b1-4)GlcNAc(b1-2)[Gal(b1-4)GlcNAc(b1-3)Gal(b1-4)GlcNAc(b1-6)]Man(a1-6)[Gal(b1-4)GlcNAc(b1-3)Gal(b1-4)GlcNAc(b1-2)Man(a1-3)]Man(b1-4)GlcNAc(b1-4)[Fuc(a1-6)]GlcNAc
Summary of the method: as §1

[12] = target: Gal(b1-4)GlcNAc(b1-3)Gal(b1-4)GlcNAc(b1-3)Gal(b1-4)GlcNAc
Summary of the method: as §1

[13] = target: Gal(b1-4)GlcNAc(b1-3)Gal(b1-4)GlcNAc(b1-3)Gal(b1-4)GlcNAc(b1-2)Man(a1-3)[Gal(b1-4)GlcNAc(b1-3)Gal(b1-4)GlcNAc(b1-3)Gal(b1-4)GlcNAc(b1-2)Man(a1-6)]Man(b1-4)GlcNAc(b1-4)GlcNAc
Summary of the method: as §1

[14] = target: Gal(b1-4)GlcNAc(b1-3)Gal(b1-4)GlcNAc(b1-3)Gal(b1-4)GlcNAc(b1-2)Man(a1-3)[Gal(b1-4)GlcNAc(b1-3)Gal(b1-4)GlcNAc(b1-3)Gal(b1-4)GlcNAc(b1-2)Man(a1-6)]Man(b1-4)GlcNAc(b1-4)[Fuc(a1-6)]GlcNAc
Summary of the method: as §1

[15] = target: Gal(b1-4)GlcNAc(b1-3)Gal(b1-4)GlcNAc(b1-3)Gal(b1-4)GlcNAc(b1-2)[Gal(b1-4)GlcNAc(b1-3)Gal(b1-4)GlcNAc(b1-3)Gal(b1-4)GlcNAc(b1-6)]Man(a1-6)[Gal(b1-4)GlcNAc(b1-3)Gal(b1-4)GlcNAc(b1-3)Gal(b1-4)GlcNAc(b1-2)Man(a1-3)]Man(b1-4)GlcNAc(b1-4)[Fuc(a1-6)]GlcNAc
Summary of the method: as §1

[16] = target: Gal(b1-4)GlcNAc(b1-3)Gal(b1-4)GlcNAc(b1-3)Gal(b1-4)GlcNAc(b1-3)Gal(b1-4)GlcNAc(b1-2)Man(a1-3)[Gal(b1-4)GlcNAc(b1-3)Gal(b1-4)GlcNAc(b1-3)Gal(b1-4)GlcNAc(b1-3)Gal(b1-4)GlcNAc(b1-2)Man(a1-6)]Man(b1-4)GlcNAc(b1-4)GlcNAc
Summary of the method: as §1

[17] = target: Gal(b1-4)GlcNAc(b1-3)Gal(b1-4)GlcNAc(b1-3)Gal(b1-4)GlcNAc(b1-3)Gal(b1-4)GlcNAc(b1-2)Man(a1-3)[Gal(b1-4)GlcNAc(b1-3)Gal(b1-4)GlcNAc(b1-3)Gal(b1-4)GlcNAc(b1-3)Gal(b1-4)GlcNAc(b1-2)Man(a1-6)]Man(b1-4)GlcNAc(b1-4)[Fuc(a1-6)]GlcNAc
Summary of the method: as §1

[18] = target: Gal(b1-4)GlcNAc(b1-3)Gal(b1-4)GlcNAc(b1-3)Gal(b1-4)GlcNAc(b1-3)Gal(b1-4)GlcNAc(b1-2)[Gal(b1-4)GlcNAc(b1-3)Gal(b1-4)GlcNAc(b1-3)Gal(b1-4)GlcNAc(b1-3)Gal(b1-4)GlcNAc(b1-6)]Man(a1-6)[Gal(b1-4)GlcNAc(b1-3)Gal(b1-4)GlcNAc(b1-3)Gal(b1-4)GlcNAc(b1-3)Gal(b1-4)GlcNAc(b1-2)Man(a1-3)]Man(b1-4)GlcNAc(b1-4)[Fuc(a1-6)]GlcNAc
Summary of the method: as §1

[19] = target: Gal(b1-4)GlcNAc(b1-3)Gal(b1-4)GlcNAc(b1-3)Gal(b1-4)GlcNAc(b1-3)Gal(b1-4)GlcNAc(b1-3)Gal(b1-4)GlcNAc(b1-2)Man(a1-3)[Gal(b1-4)GlcNAc(b1-3)Gal(b1-4)GlcNAc(b1-3)Gal(b1-4)GlcNAc(b1-3)Gal(b1-4)GlcNAc(b1-3)Gal(b1-4)GlcNAc(b1-2)Man(a1-6)]Man(b1-4)GlcNAc(b1-4)GlcNAc
Summary of the method: as §1

[20] = target: Gal(b1-4)GlcNAc(b1-3)Gal(b1-4)GlcNAc(b1-3)Gal(b1-4)GlcNAc(b1-3)Gal(b1-4)GlcNAc(b1-3)Gal(b1-4)GlcNAc(b1-2)Man(a1-3)[Gal(b1-4)GlcNAc(b1-3)Gal(b1-4)GlcNAc(b1-3)Gal(b1-4)GlcNAc(b1-3)Gal(b1-4)GlcNAc(b1-3)Gal(b1-4)GlcNAc(b1-2)Man(a1-6)]Man(b1-4)GlcNAc(b1-4)[Fuc(a1-6)]GlcNAc
Summary of the method: as §1

[21] = target: Gal(b1-4)GlcNAc(b1-3)Gal(b1-4)GlcNAc(b1-3)Gal(b1-4)GlcNAc(b1-3)Gal(b1-4)GlcNAc(b1-3)Gal(b1-4)GlcNAc(b1-2)[Gal(b1-4)GlcNAc(b1-3)Gal(b1-4)GlcNAc(b1-3)Gal(b1-4)GlcNAc(b1-3)Gal(b1-4)GlcNAc(b1-3)Gal(b1-4)GlcNAc(b1-6)]Man(a1-6)[Gal(b1-4)GlcNAc(b1-3)Gal(b1-4)GlcNAc(b1-3)Gal(b1-4)GlcNAc(b1-3)Gal(b1-4)GlcNAc(b1-3)Gal(b1-4)GlcNAc(b1-2)Man(a1-3)]Man(b1-4)GlcNAc(b1-4)[Fuc(a1-6)]GlcNAc
Summary of the method: as §1

[22] = target: Gal(b1-4)GlcNAc(b1-3)Gal(b1-4)GlcNAc(b1-3)Gal(b1-4)GlcNAc(b1-3)Gal(b1-4)GlcNAc(b1-3)Gal(b1-4)GlcNAc(b1-3)Gal(b1-4)GlcNAc(b1-2)Man(a1-3)[Gal(b1-4)GlcNAc(b1-3)Gal(b1-4)GlcNAc(b1-3)Gal(b1-4)GlcNAc(b1-3)Gal(b1-4)GlcNAc(b1-3)Gal(b1-4)GlcNAc(b1-3)Gal(b1-4)GlcNAc(b1-2)Man(a1-6)]Man(b1-4)GlcNAc(b1-4)GlcNAc
Summary of the method: as §1

B1: Gal 12 (Homo sapiens), Q96DT0 (protein)
chain: MSQPSGGRAPGTRIYSWSCPTVMSPGEKLDPIPDSFILQPPVFHPVVPYVTTIFGGLHAGKMVMLQGVVPLDAHRFQVDFQCGCSLCPRPDIAFHFNPRFHTTKPHVICNTLHGGRWQREARWPHLALRRGSSFLILFLFGNEEVKVSVNGQHFLHFRYRLPLSHVDTLGIFGDILVEAVGFLNINPFVEGSREYPAGHPFLLMSPRLEVPCSHALPQGLSPGQVIIVRGLVLQEPKHFTVSLRDQAAHAPVTLRASFADRTLAWISRWGQKKLISAPFLFYPQRFFEVLLLFQEGGLKLALNGQGLGATSMNQQALEQLRELRISGSVQLYCVHS
glycan array binding signal (z-score) [1]: 1.75
glycan array binding signal (z-score) [2]: -0.51
glycan array binding signal (z-score) [3]: -0.581
glycan array binding signal (z-score) [4]: 0.396
glycan array binding signal (z-score) [5]: 0.043
glycan array binding signal (z-score) [6]: -0.36
glycan array binding signal (z-score) [7]: -0.226
glycan array binding signal (z-score) [8]: 1.1
glycan array binding signal (z-score) [9]: 0.609
glycan array binding signal (z-score) [10]: 1.5
glycan array binding signal (z-score) [11]: -0.068
glycan array binding signal (z-score) [12]: -0.453
glycan array binding signal (z-score) [13]: 1.53
glycan array binding signal (z-score) [14]: -0.445
glycan array binding signal (z-score) [15]: 3.44
glycan array binding signal (z-score) [16]: 2.32
glycan array binding signal (z-score) [17]: -0.034
glycan array binding signal (z-score) [18]: 0.071
glycan array binding signal (z-score) [19]: 1.93
glycan array binding signal (z-score) [20]: 0.431
glycan array binding signal (z-score) [21]: 0.61
glycan array binding signal (z-score) [22]: 1.16
